According to patent US9320748B2, “Immunologically useful arginine salts” (Novartis AG, priority 2012, dated 2016):
Structures can show the parent of a compound that is named as a salt. Some results were stated once for a whole list of compounds, not compound by compound.

Tested on: 5 different strains
Assay: Serum bactericidal assay (SBA), whole panel
Format: in vivo, serogroup B meningococcus
Settings: IP route; adsorbed to Al—H

Structure (SMILES) | Bactericidal titer against all strains
Cc1cc(OCCOCCOCCP(=O)(O)O)ccc1CCc1cnc2c(N)nc3cc(CCC(=O)O)ccc3c2c1 [arginine salt, arginine salt of 3-(5-amino-2-(2-methyl-4-(2-(2-(2-phosphonoethoxyl)ethoxy)ethoxy)phenethyl)benzo[f][1,7]naphthyridin-8-yl)propanoic acid] | ≥ 8192
Cc1cc(OCCOCCOCCP(=O)(O)O)ccc1CCc1cnc2c(N)nc3cc(CCC(=O)O)ccc3c2c1 [free base, 3-(5-amino-2-(2-methyl-4-(2-(2-(2-phosphonoethoxy)ethoxy)ethoxy)phenethyl)benzo[f][1,7]naphthyridin-8-yl)propanoic acid] | ≥ 8192
